Results are given in words; binding and its absence hold for the method and conditions named. In cells and extracts the contact can be indirect. Some binding calls cover weakened binding; strength is not graded here.

Chains of the proteins cited; added tags and fusions are not shown.
UniProt Q9WV60: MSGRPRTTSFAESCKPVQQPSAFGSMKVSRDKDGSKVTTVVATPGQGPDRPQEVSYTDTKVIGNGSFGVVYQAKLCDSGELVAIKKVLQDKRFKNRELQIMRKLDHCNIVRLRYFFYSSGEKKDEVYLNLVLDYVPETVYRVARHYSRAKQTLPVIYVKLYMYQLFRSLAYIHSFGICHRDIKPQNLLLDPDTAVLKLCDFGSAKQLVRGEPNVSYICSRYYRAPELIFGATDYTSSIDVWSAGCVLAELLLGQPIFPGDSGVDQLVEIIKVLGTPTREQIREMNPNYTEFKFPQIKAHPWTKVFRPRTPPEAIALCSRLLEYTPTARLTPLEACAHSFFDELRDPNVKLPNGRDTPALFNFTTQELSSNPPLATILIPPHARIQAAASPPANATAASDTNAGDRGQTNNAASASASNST
UniProt P49841: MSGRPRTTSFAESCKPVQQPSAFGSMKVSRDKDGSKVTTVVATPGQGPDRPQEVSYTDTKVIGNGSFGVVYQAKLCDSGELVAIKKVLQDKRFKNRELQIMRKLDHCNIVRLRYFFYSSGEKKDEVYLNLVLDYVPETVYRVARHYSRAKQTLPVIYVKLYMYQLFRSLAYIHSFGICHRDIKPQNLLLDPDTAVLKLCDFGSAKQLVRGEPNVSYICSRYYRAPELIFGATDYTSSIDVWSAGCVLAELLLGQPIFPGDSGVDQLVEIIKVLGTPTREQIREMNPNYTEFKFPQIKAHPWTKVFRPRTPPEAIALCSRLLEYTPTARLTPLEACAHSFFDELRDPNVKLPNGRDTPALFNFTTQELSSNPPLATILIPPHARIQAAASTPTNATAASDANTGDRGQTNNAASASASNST

The target of test [1] is T1, Biliverdin reductase-A, human (human (endogenous in SHSY-5Y)) (UniProt P53004).
T1 sequence: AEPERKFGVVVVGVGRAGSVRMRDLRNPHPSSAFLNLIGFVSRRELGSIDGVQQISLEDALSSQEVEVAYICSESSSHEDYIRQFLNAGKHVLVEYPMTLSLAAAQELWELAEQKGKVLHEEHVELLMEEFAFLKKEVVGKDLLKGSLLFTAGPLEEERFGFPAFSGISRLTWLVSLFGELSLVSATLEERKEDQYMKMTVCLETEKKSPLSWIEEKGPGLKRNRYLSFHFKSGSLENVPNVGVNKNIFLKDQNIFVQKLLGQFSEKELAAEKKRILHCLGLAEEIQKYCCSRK
Put plainly: co-IP; mitochondrial extracts of SHSY-5Y cells, control or 100 nM insulin for 30 min (pooled, n = 2); anti-BVR-A, Protein G magnetic beads; blot for GSK3β, normalised on IPed BVR-A.

The target in test [2] is glycogen synthase kinase 3β, mouse (mouse (endogenous in hippocampus)) (UniProt Q9WV60). Description: co-IP; hippocampal mitochondrial extracts of WT mice, without or with intranasal insulin for 30 min (pooled, n = 2); anti-GSK3β, Protein G magnetic beads; blot for BVR-A.

As to “glycogen synthase kinase 3β, human (from UniProt P49841 1-420)”, in test [1], the binding result is recorded as “binds”.

B1: Biliverdin reductase-A, mouse (protein, UniProt Q9CY64 3-295)
chain: TEPKRKFGVVVVGVGRAGSVRIRDLKDPHSSAFLNLIGYVSRRELGSLDNVRQISLEDALRSQEVDVAYICTESSSHEDYIRQFLQAGKHVLVEYPMALSFAAAQELWELAAQKGRVLHEEHIELLMEEFEFLKREVAGKELLKGSLRFTASPLEEEKFGFPAFSGISRLTWLVSLFGELSLISATMENRKEDQYMKMTVQLETQNKSPLSWIEEKGPGLKRNRHISIHFKSGSLEEVPNVGVNKNIFLKDQDIFIQKLLGQVSAEDLAAEKKRILHCLELASDIQRLCHRKQ
For B1, in test [2], the binding entry is reported as “binds”.

(Values after article PMC11190564.)
